Paper PMC10624633
These are yes or no findings as the source states them, for the method shown. In cells and extracts the contact can be indirect. A yes stands for co-enrichment or nearness to the bait. Other partners may have been found.

Chains of the proteins cited; added tags and fusions are not shown.
UniProt O75362: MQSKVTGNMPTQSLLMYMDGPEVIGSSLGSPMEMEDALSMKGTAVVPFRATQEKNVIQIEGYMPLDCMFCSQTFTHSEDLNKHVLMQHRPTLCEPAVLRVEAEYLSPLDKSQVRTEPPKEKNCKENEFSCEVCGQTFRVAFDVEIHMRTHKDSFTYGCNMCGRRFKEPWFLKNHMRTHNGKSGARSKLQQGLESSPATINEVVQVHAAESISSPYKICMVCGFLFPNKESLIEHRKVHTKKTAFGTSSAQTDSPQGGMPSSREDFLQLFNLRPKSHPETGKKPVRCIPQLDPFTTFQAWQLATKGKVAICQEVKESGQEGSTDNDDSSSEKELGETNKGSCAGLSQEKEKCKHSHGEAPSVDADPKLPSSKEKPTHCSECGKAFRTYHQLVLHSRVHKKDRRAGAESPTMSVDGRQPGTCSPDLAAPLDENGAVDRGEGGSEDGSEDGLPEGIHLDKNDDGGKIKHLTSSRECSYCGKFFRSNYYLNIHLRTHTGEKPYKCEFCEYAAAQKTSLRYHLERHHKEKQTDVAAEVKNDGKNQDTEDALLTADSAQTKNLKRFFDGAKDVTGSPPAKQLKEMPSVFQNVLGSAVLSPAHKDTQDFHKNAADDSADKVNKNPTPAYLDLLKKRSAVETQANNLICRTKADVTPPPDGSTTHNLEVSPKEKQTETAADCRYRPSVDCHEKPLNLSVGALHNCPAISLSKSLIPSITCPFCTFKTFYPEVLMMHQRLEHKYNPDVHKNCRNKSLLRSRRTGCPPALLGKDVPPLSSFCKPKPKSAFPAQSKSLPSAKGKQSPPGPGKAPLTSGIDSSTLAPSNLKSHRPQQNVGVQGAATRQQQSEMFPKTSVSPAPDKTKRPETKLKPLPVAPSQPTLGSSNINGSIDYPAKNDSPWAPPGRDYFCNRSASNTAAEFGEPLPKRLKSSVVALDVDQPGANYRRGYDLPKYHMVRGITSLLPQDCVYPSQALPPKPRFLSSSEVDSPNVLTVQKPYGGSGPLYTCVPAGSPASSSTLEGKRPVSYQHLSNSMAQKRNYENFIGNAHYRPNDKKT

Biological target: n-Flag-ZNF217 (wild type) (human) (UniProt O75362)
Assay: affinity purification with mass spectrometry; lysates of ZNF217^KO cells ectopically expressing n-Flag-ZNF217 variants incubated with anti-FLAG M2 magnetic beads at 4 °C overnight; washed twice with TBS + 0.1% NP40 and twice with TBS; label-free (LFQ) mass spectrometry, compared to no-Flag ZNF217^WT control

Q: CoREST 3 (from UniProt Q9P2K3 1-495) was tested. Which binding did it give?
A: binds
